From PMC5498334
Results are given in words; binding and its absence hold for the method and conditions named. For part of these data: Binding seen in cells or lysates may run through a third protein. Some entries that bind do so weakly or less than the wild type. For part of these data: Tags and fused reporters may be left off the sequences shown.

T1: CENP F (2461–2998 aa), expressed in COS-7 cells (mouse) (UniProt Q155P7)
T1 sequence: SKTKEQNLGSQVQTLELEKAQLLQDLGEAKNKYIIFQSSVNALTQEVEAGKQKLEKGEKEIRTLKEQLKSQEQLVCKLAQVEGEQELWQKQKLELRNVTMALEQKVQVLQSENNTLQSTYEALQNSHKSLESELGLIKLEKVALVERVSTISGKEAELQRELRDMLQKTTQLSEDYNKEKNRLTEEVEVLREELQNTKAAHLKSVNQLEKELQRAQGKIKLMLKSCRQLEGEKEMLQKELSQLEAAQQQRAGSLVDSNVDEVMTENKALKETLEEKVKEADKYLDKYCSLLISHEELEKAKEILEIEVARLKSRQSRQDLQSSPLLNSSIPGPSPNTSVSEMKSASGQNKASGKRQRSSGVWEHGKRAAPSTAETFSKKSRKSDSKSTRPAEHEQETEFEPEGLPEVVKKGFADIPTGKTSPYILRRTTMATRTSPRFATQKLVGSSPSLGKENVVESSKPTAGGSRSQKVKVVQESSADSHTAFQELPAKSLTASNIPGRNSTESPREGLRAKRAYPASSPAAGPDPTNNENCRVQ

T2: CENP J (891–1160 aa), expressed in COS-7 cells (mouse) (UniProt Q569L8)
T2 sequence: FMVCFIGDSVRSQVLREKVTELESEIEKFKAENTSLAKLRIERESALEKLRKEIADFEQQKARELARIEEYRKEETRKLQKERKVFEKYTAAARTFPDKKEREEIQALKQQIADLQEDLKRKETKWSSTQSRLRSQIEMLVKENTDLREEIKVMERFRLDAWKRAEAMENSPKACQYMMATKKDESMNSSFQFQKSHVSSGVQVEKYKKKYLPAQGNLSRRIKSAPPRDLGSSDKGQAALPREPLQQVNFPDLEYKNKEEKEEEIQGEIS

T3: CENP J (891–1160 aa), C-terminal coiled coil region, yeast two-hybrid bait (mouse) (UniProt Q569L8)
T3 sequence: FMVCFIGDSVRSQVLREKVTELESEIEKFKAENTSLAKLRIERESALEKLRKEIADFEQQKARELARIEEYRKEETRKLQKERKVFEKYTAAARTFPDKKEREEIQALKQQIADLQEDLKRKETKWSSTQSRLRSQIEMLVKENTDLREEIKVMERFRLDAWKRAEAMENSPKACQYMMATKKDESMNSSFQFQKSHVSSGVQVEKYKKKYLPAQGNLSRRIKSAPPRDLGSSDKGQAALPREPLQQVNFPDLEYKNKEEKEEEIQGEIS

T4: CENP F (2461–2998 aa), C-terminal domain, yeast two-hybrid bait (mouse) (UniProt Q155P7)
T4 sequence: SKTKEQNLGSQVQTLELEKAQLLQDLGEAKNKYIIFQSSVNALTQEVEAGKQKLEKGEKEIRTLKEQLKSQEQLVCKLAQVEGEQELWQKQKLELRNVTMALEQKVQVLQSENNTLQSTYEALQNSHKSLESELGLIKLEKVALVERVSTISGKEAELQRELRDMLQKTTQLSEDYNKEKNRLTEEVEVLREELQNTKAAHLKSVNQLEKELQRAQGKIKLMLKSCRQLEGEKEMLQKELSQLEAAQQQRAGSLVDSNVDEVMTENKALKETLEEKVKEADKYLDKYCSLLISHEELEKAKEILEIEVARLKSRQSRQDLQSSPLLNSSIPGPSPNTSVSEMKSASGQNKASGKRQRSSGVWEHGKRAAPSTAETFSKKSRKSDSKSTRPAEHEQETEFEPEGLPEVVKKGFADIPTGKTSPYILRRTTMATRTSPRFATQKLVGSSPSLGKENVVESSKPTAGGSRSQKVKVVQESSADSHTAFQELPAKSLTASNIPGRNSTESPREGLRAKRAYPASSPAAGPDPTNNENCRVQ

B1: SYCP2 NTD-8x Myc (domain or fragment, UniProt Q9CUU3 1-390)
chain: MPVRPDLQQLEKCIDDALRKNDFKPLLALLQIDICEDVKIKCSKQFLRKLDDLICRELNKKDIQTVSSILISIGRCSKNIFILGQAGLQTMIKQGLVQKMVSWFENSKEIILNQQQSKDEAVMNMIEDLFDLLMVIYDISDEGKNQVLESFIPQICALVIDSRVNFCIQQEALKKMNLMLDRIPQDANKILSNQEMLTLMSNMGERILDVGDYELQVGIVEALCRMTTEKRRQELAYEWFSMDFIANAFKEIKDCEFETDCRIFLNLVNGILGDKRRVYTFPCLSAFLGKYELQIPSDEKLEEFWIDFNLGSHTLSFYIAGDEEDHQWEAVTVPEEKVQMYNIEVRESKKLLTLTLKNIVKISKKEGKELLFYFDESLEITNVTKKVFGG
B2: mouse SYCP2 N-terminal region (1–390 aa), yeast two-hybrid prey (domain or fragment, UniProt Q9CUU3 1-390)
chain: MPVRPDLQQLEKCIDDALRKNDFKPLLALLQIDICEDVKIKCSKQFLRKLDDLICRELNKKDIQTVSSILISIGRCSKNIFILGQAGLQTMIKQGLVQKMVSWFENSKEIILNQQQSKDEAVMNMIEDLFDLLMVIYDISDEGKNQVLESFIPQICALVIDSRVNFCIQQEALKKMNLMLDRIPQDANKILSNQEMLTLMSNMGERILDVGDYELQVGIVEALCRMTTEKRRQELAYEWFSMDFIANAFKEIKDCEFETDCRIFLNLVNGILGDKRRVYTFPCLSAFLGKYELQIPSDEKLEEFWIDFNLGSHTLSFYIAGDEEDHQWEAVTVPEEKVQMYNIEVRESKKLLTLTLKNIVKISKKEGKELLFYFDESLEITNVTKKVFGG

What was measured:
[1] = biological target: T1, CENP F (2461–2998 aa), expressed in COS-7 cells (mouse); assay: co-IP; co-transfection and immunoprecipitation in COS-7 cells, Western blot
[2] = biological target: T2, CENP J (891–1160 aa), expressed in COS-7 cells (mouse); assay: as above
[3] = biological target: T3, CENP J (891–1160 aa), C-terminal coiled coil region, yeast two-hybrid bait (mouse); assay: two-hybrid; CENP J or CENP F constructs as bait, mSYCP2 NTR, ARLD or SLD as prey (by the legend); p53-T antigen and lam-T as system controls
[4] = biological target: T4, CENP F (2461–2998 aa), C-terminal domain, yeast two-hybrid bait (mouse); assay: as above
[5] = biological target: CENP F wild type (1–2998 aa), yeast two-hybrid bait (mouse) (UniProt Q155P7); assay: as above
[6] = biological target: CENP J wild type (1–1344 aa), yeast two-hybrid bait (mouse) (UniProt Q569L8); assay: as above

Binder | binding [1] | binding [2] | binding [3] | binding [4] | binding [5] | binding [6]
B1 | binds | binds | – | – | – | –
B2 | – | – | binds | binds | binds weakly | binds
